Assay results as given in PubChem BioAssay AID1487 (National Center for Advancing Translational Sciences (NCATS), 2009).
This is one part of the list. Further columns of the screen follow, without active or inactive calls. Compounds called inactive in the main read-out are mostly missing here. The note in brackets gives the kind of curve behind each potency; many fits are weak.

Assay: qHTS Assay for Modulators of Lamin A Splicing
Conditions: HeLa LMNA splicing GFP/RFP minigene ratio, 48 h
How it was run: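 Read-out is the ratio of GFP to DsRed2 object intensity, acquired by 488 nm laser-scanning cytometry on HeLa lamin A-EGFP minigene reporter cells. Compound incubation 48 hrs at 37 °C in Opti-MEM with 2% FBS; DMSO 0.5% final.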

[1] = measured here: GFP splicing reporter channel
[2] = measured here: RFP viability control channel

Compound: CSc1ccc(C(=O)C2CCCN(S(=O)(=O)c3c(C)noc3C)C2)cc1 (stereo unspecified)
- AC50 [1]: 8.91 µM [falling, partial curve]
- AC50 [2]: 7.08 µM [falling, full curve]

Compound: N=c1c2c3c(sc2ncn1CCN1CCOCC1)CCCC3
- AC50 [1]: 35.5 µM [rising, partial curve]
- AC50 [2]: 35.5 µM [rising, partial curve]

Compound: N#Cc1nc(Cc2cccc3ccccc23)oc1N1CCC(C(N)=O)CC1
- AC50 [1]: 12.6 µM [rising, single point]
- AC50 [2]: 12.6 µM [rising, single point]

Compound: O=C(Nc1ccc(N2CCOCC2)nc1)c1ccc(C(F)(F)F)cc1
- AC50 [1]: 0.01 µM [falling, full curve, poor fit]

Compound: COc1cccc(-c2nc(NC3CC3)c3ccccc3n2)c1
- AC50 [1]: 20 µM [falling, partial curve]
- AC50 [2]: 35.5 µM [falling, single point]

Compound: CC1=CC(=O)N(c2ccc(C)cc2)C1c1ccc(Cl)cc1 (stereo unspecified)
- AC50 [1]: 14.1 µM [rising, single point]

Compound: Cc1ccc(Nc2cc(-n3nc(C)cc3C)ncn2)cc1
- AC50 [2]: 8.91 µM [rising, partial curve, poor fit]

Compound: COc1ccccc1CNc1ccnc(-c2ccc(N(C)C)cc2)n1
- AC50 [1]: 12.6 µM [falling, partial curve]
- AC50 [2]: 12.6 µM [falling, partial curve]

Compound: Cc1ccc(Nc2nc(C(N)=O)c(NC(=O)c3ccccc3Br)s2)cc1
- AC50 [1]: 2.51 µM [falling, full curve, poor fit]
- AC50 [2]: 2.51 µM [falling, partial curve, poor fit]

Compound: Nc1oc2ccc(F)cc2c(=O)c1C=O
- AC50 [1]: 1 µM [falling, partial curve]
- AC50 [2]: 1.26 µM [falling, full curve, poor fit]

Compound: O=C(Nc1cccc(Cl)c1)Nc1nnc(-c2ccncc2)s1
- AC50 [1]: 2.51 µM [rising, full curve]
- AC50 [2]: 4.47 µM [rising, full curve]

Compound: C/C(N)=C(/C#N)C(=O)COC(=O)c1ccccc1Cc1ccccc1
- AC50 [1]: 5.01 µM [falling, full curve, poor fit]

Compound: Cc1cccc(NC(=S)N(Cc2ccc(Br)cc2)Cc2ccc(C(=O)O)cc2)c1
- AC50 [1]: 35.5 µM [falling, single point]
- AC50 [2]: 20 µM [falling, single point]

Compound: O=C(Nc1nc2c(c(=O)[nH]1)CCCC2)C1CC1
- AC50 [2]: 22.4 µM [rising, single point]

Compound: Cc1ccc(NC(=O)CC2Nc3ccccc3NC2=O)cc1Cl (stereo unspecified)
- AC50 [1]: 15.8 µM [falling, single point]
- AC50 [2]: 17.8 µM [falling, partial curve]

Compound: CC(C)(C)C(=O)Nc1ccc2nc(SCc3ccccc3)sc2c1
- AC50 [2]: 35.5 µM [rising, single point]

Compound: CCn1c(SCC(=O)Nc2ccc3c(c2)OCO3)nc2ccccc21
- AC50 [2]: 10 µM [rising, partial curve]

Compound: CO/N=C/c1ccc(Oc2ccc([N+](=O)[O-])cc2[N+](=O)[O-])c(OC)c1
- AC50 [2]: 31.6 µM [rising, single point]

Compound: COc1ccc(S(=O)(=O)N2CCC(C(=O)N3CCOCC3)CC2)cc1Cl
- AC50 [1]: 6.31 µM [falling, single point]
- AC50 [2]: 5.62 µM [falling, single point]

Compound: C[N+]1(C)C[C@@H](O)C[C@@H]1C(=O)[O-]
- AC50 [1]: 0.0316 µM [falling, partial curve, poor fit]
- AC50 [2]: 0.0708 µM [falling, full curve, poor fit]

Compound: CC(=O)Nc1ccc(NC(=O)COC(=O)C2(c3ccc(Cl)cc3)CCCC2)cc1
- AC50 [2]: 11.2 µM [rising, partial curve]

Compound: COc1ccc(C(=O)n2c(-c3ccco3)nc3ccccc32)cc1
- AC50 [1]: 11.2 µM [rising, partial curve]
- AC50 [2]: 10 µM [rising, partial curve]

Compound: CCOC(=O)c1ccc(O)cc1
- AC50 [1]: 0.00316 µM [falling, full curve, poor fit]

Compound: c1ccc(Cn2c(-c3ccccc3)nc3nc4ccccc4nc32)cc1
- AC50 [1]: 12.6 µM [rising, partial curve]
- AC50 [2]: 35.5 µM [rising, single point]

Compound: Cc1ccc(Cl)cc1N1CCN(C(=O)c2ccc3nc[nH]c3c2)CC1
- AC50 [1]: 0.355 µM [rising, single point]
- AC50 [2]: 20 µM [rising, partial curve, poor fit]

Compound: C=CCn1c2ccccc2c2nnc(SCCCn3c(=O)[nH]c4ccccc43)nc21
- AC50 [2]: 12.6 µM [rising, partial curve, poor fit]
